Data as given in PMC7862700.
The list shows a part of the results, in another mix than the full data. For some assays here: At the low end of the ranking the order means little. The list shows a part of the results. For some assays here: The exact form of the protein is not confirmed.

Tests used:
Experiment in all cases: DAPPL (digital affinity profiling via proximity ligation, sequencing)
Conditions in all cases: 10 mM Tris-HCl pH 7.5, 50 mM NaCl, 1 mM DTT, 4% glycerol, room temperature, 30 min; GST-TFs on glutathione beads, 16-mer random dsDNA library, 0.1% …; high values mean tight binding; double strand, one strand shown; scale: fold enrichment (6-mer frequency, TF over GST control)
GABPA = molecular target: T1, GABPA (UniProt Q06546)
T1 sequence: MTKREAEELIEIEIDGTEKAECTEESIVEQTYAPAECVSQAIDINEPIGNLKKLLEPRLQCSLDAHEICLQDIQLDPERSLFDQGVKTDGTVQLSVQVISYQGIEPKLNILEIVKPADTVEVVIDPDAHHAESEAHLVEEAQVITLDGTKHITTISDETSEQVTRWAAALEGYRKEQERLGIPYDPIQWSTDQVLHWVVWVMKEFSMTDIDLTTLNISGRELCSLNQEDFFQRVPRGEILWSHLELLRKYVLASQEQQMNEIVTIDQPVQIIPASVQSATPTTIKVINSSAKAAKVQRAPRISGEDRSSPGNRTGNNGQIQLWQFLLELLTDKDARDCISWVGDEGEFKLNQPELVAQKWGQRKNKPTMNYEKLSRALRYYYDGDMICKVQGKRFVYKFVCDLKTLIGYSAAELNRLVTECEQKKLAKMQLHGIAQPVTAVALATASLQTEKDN

ETS1 = molecular target: T2, ETS1 (UniProt P14921)
T2 sequence: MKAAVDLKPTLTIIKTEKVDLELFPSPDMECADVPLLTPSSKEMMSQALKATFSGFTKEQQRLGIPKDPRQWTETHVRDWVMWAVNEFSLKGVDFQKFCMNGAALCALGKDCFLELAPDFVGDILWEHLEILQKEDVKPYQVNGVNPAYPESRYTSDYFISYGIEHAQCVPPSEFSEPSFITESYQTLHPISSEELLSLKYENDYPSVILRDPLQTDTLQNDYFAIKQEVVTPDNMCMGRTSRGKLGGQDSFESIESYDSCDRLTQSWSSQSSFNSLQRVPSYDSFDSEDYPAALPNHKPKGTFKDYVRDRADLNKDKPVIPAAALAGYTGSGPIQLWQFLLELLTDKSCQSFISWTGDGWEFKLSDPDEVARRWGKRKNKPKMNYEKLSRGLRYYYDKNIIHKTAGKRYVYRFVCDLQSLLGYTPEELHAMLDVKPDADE

SPDEF = molecular target: T3, SPDEF (UniProt O95238)
T3 sequence: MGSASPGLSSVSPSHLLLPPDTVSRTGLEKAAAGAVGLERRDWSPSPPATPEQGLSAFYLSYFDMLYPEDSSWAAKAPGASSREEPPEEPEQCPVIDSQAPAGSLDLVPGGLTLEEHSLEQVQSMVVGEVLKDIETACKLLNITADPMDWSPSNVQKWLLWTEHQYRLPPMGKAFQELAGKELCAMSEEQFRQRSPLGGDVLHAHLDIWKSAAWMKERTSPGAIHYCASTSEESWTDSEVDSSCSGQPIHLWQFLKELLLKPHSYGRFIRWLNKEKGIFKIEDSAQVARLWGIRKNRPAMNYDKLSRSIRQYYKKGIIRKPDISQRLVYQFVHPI

Sequence | binding signal (GABPA) | binding signal (ETS1) | binding signal (SPDEF)
AAGCAG | 1.13 | 1.16 | –
CTGATC | 1.4 | 1.27 | –
TTTAGG | 1.11 | 1.13 | –
TCCCGC | 1.4 | 1.39 | –
CTTCAT | 1.45 | 1.52 | –
TACCCA | 1.12 | 1.09 | –
CCTCCC | 1.45 | 1.53 | –
AATAAT | 1.31 | 1.34 | –
ATATAC | 1.2 | 1.13 | –
TCACAG | 1.1 | 1.07 | –
ATCGAT | 1.19 | 1.11 | –
ACTCTA | 1.52 | 1.46 | –
CTCATG | 1.26 | 1.23 | –
CGGCTC | 1.2 | 1.22 | –
AATGAG | 1.22 | 1.18 | –
TAATTG | 1.38 | 1.37 | –
CGTCCG | 1.24 | 1.18 | –
ATTTCC | 3.59 | 3.57 | –
ATATGG | 1.28 | 1.34 | –
GATCTC | 1.16 | 1.24 | –
TGTGAC | 1.15 | 1.09 | –
GCGACT | 1.13 | 1.16 | –
CTTTTC | 1.34 | 1.47 | –
TAAACA | 1.19 | 1.24 | –

Sequence | binding signal (GABPA) | binding signal (ETS1) | binding signal (SPDEF)
ATGGGT | 1.28 | 1.34 | –
CTCTGG | 1.3 | 1.41 | –
TACTAG | 1.07 | 1.11 | –
CAAAAC | 1.3 | 1.31 | –
CTTACC | 1.26 | 1.31 | –
ACGAAC | 1.19 | 1.18 | –
AATGGC | 1.37 | 1.42 | –
TTTATG | 1.4 | 1.32 | –
TACATC | 1.51 | 1.63 | –
AGAATT | 1.11 | 1.26 | –
TTCTCG | 1.55 | 1.41 | –
GACCTG | 1.19 | 1.23 | –
AATAGC | 1.17 | 1.05 | –
TCTGTT | 1.24 | 1.36 | –
ATCTCT | 1.33 | 1.31 | –
CTATAC | 1.35 | 1.29 | –
GTACAT | 1.17 | 1.39 | –
GATTTC | 1.55 | 1.68 | –
TCACAT | 1.23 | 1.33 | –
TGGTTA | 1.09 | 1.12 | –
GATCTT | 1.32 | 1.2 | –
TACTGC | 1.17 | 1.2 | –
CAACAT | 1.22 | 1.17 | –
TTTGGT | 1.42 | 1.47 | –

Nothing new here: an excerpt of the list.
Sequence | binding signal (GABPA) | binding signal (ETS1) | binding signal (SPDEF)
TACTAG | 1.07 | 1.11 | –
CAAAAC | 1.3 | 1.31 | –
CTTACC | 1.26 | 1.31 | –

(next part)

Sequence | binding signal (GABPA) | binding signal (ETS1) | binding signal (SPDEF)
CTTGAT | 1.52 | 1.35 | –
CCCCAT | 1.26 | 1.27 | –
TGACGA | 1.21 | 1.18 | –
CTAATC | 1.34 | 1.29 | –
GAAGTT | 1.63 | 1.72 | –
AGCAGC | 1.11 | 1.17 | –
TAAAAG | 1.24 | 1.13 | –
GAATTT | 1.21 | 1.33 | –
CCTATC | 1.13 | 1.17 | –
TCCTAT | 1.58 | 1.63 | –
AAGATA | 1.14 | 1.11 | –
AACGAA | 1.15 | 1.14 | –
TAACGA | 1.07 | 1.13 | –
ATCTGA | 1.21 | 1.12 | –
TTACTC | 1.26 | 1.26 | –
TATATA | 1.26 | 1.39 | –
TTTCGA | 1.51 | 1.51 | –
CTAATT | 1.33 | 1.34 | –
ACCAAC | 1.23 | 1.22 | –
CTATAA | 1.18 | 1.25 | –
CTCGCC | 1.26 | 1.26 | –
TGCTTT | 1.12 | 1.05 | –
CTCGAT | 1.32 | 1.38 | –
CGAGCT | 1.09 | 1.2 | –

Sequence | binding signal (GABPA) | binding signal (ETS1) | binding signal (SPDEF)
TCCTTT | 1.72 | 1.77 | –
TACATG | 1.14 | 1.19 | –
CTCGTA | 1.3 | 1.21 | –
CTGAAT | 1.36 | 1.55 | –
CTCATT | 1.44 | 1.54 | –
AATGTC | 1.23 | 1.17 | –
TTCCAG | 0.971 | 1.07 | –
TTGCGG | 1.21 | 1.29 | 1.24
CGATAA | 1.06 | 1.06 | –
AAACCA | 1.14 | 1.14 | –
ACCTAC | 1.21 | 1.13 | –
TTCAGT | 1.06 | 1.07 | –
CGACCT | 1.54 | 1.57 | –
TTGGTG | 1.42 | 1.28 | 1.33
CATATT | 1.27 | 1.27 | –
CCACTT | 1.81 | 1.79 | 1.69
CCTAGA | 0.982 | 0.919 | 1.01
ATATCG | 1.14 | 1.2 | –
TTTTGA | 1.13 | 1.11 | 1.05
TGATCT | 1.18 | 1.15 | –
TTATGA | 1.22 | 1.13 | 1.13
AATCGC | 1.14 | 1.09 | 0.997
TTTGGC | 1.25 | 1.25 | –
TTCCCC | 1.71 | 1.68 | –

Rewritten as labelled records: entries from further up
ATTTCC
  binding signal (GABPA) = 3.59
  binding signal (ETS1) = 3.57
CTTGAT
  binding signal (GABPA) = 1.52
  binding signal (ETS1) = 1.35

Additional results

Sequence | binding signal (GABPA) | binding signal (ETS1) | binding signal (SPDEF)
AAATTG | 1.26 | 1.31 | –
TAATGT | 1.08 | 1.08 | –
TGAAAA | 0.995 | 1.13 | –
TGCTAA | 1.18 | 1.24 | –
TACGAA | 1.3 | 1.22 | –
GTAACA | 1.05 | 1.13 | 1.14
TCCCTA | 1.26 | 1.33 | –
AATTGG | 1.31 | 1.43 | 1.31
TTCCTT | 1.84 | 2.14 | –
CGAAAG | 1.08 | 1.06 | –
TCCGAC | 1.32 | 1.39 | –
GAACCA | 1.05 | 1.03 | 0.975
CAAAAT | 1.2 | 1.23 | –
GGTATT | 1.23 | 1.28 | –
AAGTGG | 1.22 | 1.17 | –
TGTAGC | 1.16 | 1.19 | –
AGTATC | 1.11 | 1.16 | –
TATGGA | 1.09 | 1.12 | –
TAACCC | – | 1.33 | 1.32
GGAATT | 1 | 1.12 | 1.16
ACTAAC | 1.26 | 1.26 | 1.2
GAAAGA | 0.97 | 0.981 | 0.998
AAATGG | 1.49 | 1.45 | 1.41
TCCGGC | – | 2.23 | 3.14
